# Some entries share one result that the patent states for a list of compounds.
# Amino acid sequences for entries named in this document (tags omitted). Residues count along the entry.
# UniProt P04629, 33-796: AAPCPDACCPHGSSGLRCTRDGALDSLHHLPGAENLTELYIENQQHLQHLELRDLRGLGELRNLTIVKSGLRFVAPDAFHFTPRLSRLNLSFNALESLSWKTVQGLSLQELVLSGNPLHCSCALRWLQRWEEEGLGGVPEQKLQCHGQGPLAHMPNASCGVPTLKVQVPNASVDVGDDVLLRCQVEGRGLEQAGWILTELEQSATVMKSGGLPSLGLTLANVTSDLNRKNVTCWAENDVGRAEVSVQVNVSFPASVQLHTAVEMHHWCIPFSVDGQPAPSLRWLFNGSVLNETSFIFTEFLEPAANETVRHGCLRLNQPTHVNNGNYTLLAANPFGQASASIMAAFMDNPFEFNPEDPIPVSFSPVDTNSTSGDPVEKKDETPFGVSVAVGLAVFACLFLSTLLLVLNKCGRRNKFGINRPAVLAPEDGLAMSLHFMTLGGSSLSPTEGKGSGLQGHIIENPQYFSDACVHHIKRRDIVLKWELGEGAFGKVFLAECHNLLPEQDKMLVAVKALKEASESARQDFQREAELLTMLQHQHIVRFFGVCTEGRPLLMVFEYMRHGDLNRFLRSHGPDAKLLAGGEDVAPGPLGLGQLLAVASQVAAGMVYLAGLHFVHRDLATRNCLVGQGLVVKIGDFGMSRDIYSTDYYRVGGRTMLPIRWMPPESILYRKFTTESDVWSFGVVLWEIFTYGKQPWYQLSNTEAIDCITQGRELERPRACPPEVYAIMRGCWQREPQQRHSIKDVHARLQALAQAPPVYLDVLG
# Tests used:
# TrkA = target: T1, TrkA (Homo sapiens, UniProt P04629); assay: In vitro kinase profiling (48 kinases), TrkA; format: biochemical
# T1 construct: purchased ProQinase, Germany (custom-ordered assay service)
# Procedure: According to the results, at concentration of 100 nM all compounds were relatively TrkA specific inhibiting only up to 3 off-target kinases, while reducing the activity of TrkA by at least 82% at 100 nM concentration and 94% at 1 μM concentration. At 100 nM, 2a25 was able to inhibit only TrkA. […] Kinases that were inhibited by most of the compounds at 1 concentration included Aurora-B, CAMKK2, CHK2, IRAK4, LCK, and MAP3K11.
# (§1) The biochemical kinase assays were custom ordered from ProQinase, Germany.
# [1] = tested on: 48 kinases representing the human kinome; assay: In vitro kinase profiling, panel of 48 kinases (off-targets); format: biochemical; conditions: 100 nM
# Source text: as §1
SMILES,reduction of the activity of TrkA (TrkA; 100 nM concentration),reduction of the activity of TrkA (TrkA; 1 μM concentration) [%],number of off-target kinases inhibited [1]
COc1ccc2c(c1)c(/C=C1\C(=O)Nc3ccc(S(N)(=O)=O)cc31)cn2C [Compound 2a22],at least 82%,≥ 94,up to 3
"CN(C)S(=O)(=O)c1ccc2c(c1)/C(=C/c1cn(C)c3ccc(O)cc13)C(=O)N2 [Compound 3a25, (Z)-3-((5-hydroxy-1-methyl-1H-indol-3-yl)methylene)-N,N-dimethyl-2-oxindole-5-sulfonamide]",at least 82%,≥ 94,up to 3
"CNS(=O)(=O)c1ccc2c(c1)/C(=C/c1cn(C)c3ccc(OC)cc13)C(=O)N2 [Compound 4a22, (Z)-3-((5-methoxy-1-methyl-1H-indol-3-yl)methylene)-N-methyl-2-oxindole-5-sulfonamide]",at least 82%,≥ 94,–
Cn1cc(/C=C2\C(=O)Nc3ccc(S(N)(=O)=O)cc32)c2ccccc21 [Compound 2a21],at least 82%,≥ 94,up to 3
"COc1ccc2[nH]cc(/C=C3\C(=O)Nc4ccc(S(N)(=O)=O)cc43)c2c1 [Compound 2a23, (Z)-3-((5-methoxy-1H-indol-3-yl)methylene)-2-oxindole-5-sulfonamide]",at least 82%,≥ 94,–
"COc1ccc2c(c1)c(/C=C1\C(=O)Nc3ccc(S(=O)(=O)N(C)C)cc31)cn2C [Compound 2a25, (Z)-3-((5-methoxy-1-methyl-1H-indol-3-yl)methylene)-N,N-dimethyl-2-oxindole-5-sulfonamide]",at least 82%,≥ 94,up to 3
